Assay results: PMC9321382
Results are given in words; binding and its absence hold for the method and conditions named. Some entries that bind do so weakly or less than the wild type.

Sequences of proteins named here, by UniProt entry; tags and fusion partners are left off.
UniProt Q1D6H4: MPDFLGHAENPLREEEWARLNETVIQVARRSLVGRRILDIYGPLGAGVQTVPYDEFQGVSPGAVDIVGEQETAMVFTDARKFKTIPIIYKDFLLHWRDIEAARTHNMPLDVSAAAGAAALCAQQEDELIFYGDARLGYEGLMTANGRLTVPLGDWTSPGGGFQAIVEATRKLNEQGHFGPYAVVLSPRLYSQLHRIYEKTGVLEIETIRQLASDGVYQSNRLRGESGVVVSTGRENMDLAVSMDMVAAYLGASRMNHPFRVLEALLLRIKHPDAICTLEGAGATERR

Target: Myxococcus xanthus encapsulin shell protein (EncA) (Myxococcus xanthus) (UniProt Q1D6H4)
Test: SEC; co-expressed and co-purified EncAC complex on a Sephacryl S-500 column in 200 mM MOPS buffer, pH 7.0, 200 mM NaCl, native conditions; compared with EncA and EncC alone

B1: Myxococcus xanthus ferritin-like cargo protein EncC (protein, UniProt Q1D3Y8 1-130)
chain: MPQTNPFHSLVPRKMTDTELARSIRLNIEAELDAINLYAAHIDATDNEDAKAILQHVMDEEREHAALFWELIARLDPEQAAHAKEAVEKYRLITSGASHEAVEAVGKEGAAPSPADVTPEKRLTVGSLRR
For B1, which binding is on record?
Its binding is “binds”.
